Most values lie at the floor of the assay. Slopes are relative: functional sequences can read slightly below zero.

The test system of the series is Saccharomyces cerevisiae PS128 hsf1 delta, HSF1(1-493) fusion. Briefly: growth estimate (transactivation domain function in HSF1 fusion, heat-shock survival) (a.u. (slope of normalised read count over time)); higher = stronger growth at 37°C, i.e. more transactivation activity. Particulars: library: random library. As to the method:
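Random 60-nt DNA library encoding peptides of up to 20 aa, fused to the C-terminus of yeast HSF1 residues 1-493 (C-terminal TAD deleted) and expressed from the native HSF1 promoter on a CEN plasmid in hsf1-deleted S. cerevisiae PS128. Cells were selected at 37°C on -trp 5-FOA plates for 0, 2, 4, 6 and 8 days and amplicons were sequenced. Growth estimate is the slope of a robust linear fit of total-sum-normalised read counts (normalised to the first time point) over time, using at least 2 replicates. Sequences are classed functional (TAD activity) above a threshold of -0.13, set from stop-codon control sequences.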
With YRSSP, the growth estimate is under -0.25.

Take GMASPS: the growth estimate was -0.236.

As for LSTEYEIRCQSRMSACRILD, the growth estimate is under -0.25.

With VVHSFPRCYVPGANALAGLY, the growth estimate was -0.231.

With DLARSGEVS, the growth estimate is under -0.25.

Consider YKLRPRVHKALDPAVC, for which the growth estimate was under -0.25.

For the substance PITCYTRKVLSRGPGQEFRS, the growth estimate was under -0.25.

Take ARLIRALFIKGRRLSDFERT: the growth estimate was under -0.25.

For LFYGTA, the growth estimate was under -0.25.

As to QFSSGRKLVMGGLRGP, the growth estimate is under -0.25.

Take AAMTSQQELRAN: the growth estimate was under -0.25.

Consider FGPKMQQRDIKANLQLVSID, for which the growth estimate is under -0.25.

MVVANPQSMTGVVIFGSWAA: the growth estimate was under -0.25.

RKVFSNWAVNARNRLIETLF: the growth estimate was under -0.25.

As to FSSTRIM, the growth estimate was -0.245.

In the case of LVGYDGYVHRVEANRGSGFR, the growth estimate was under -0.25.

Regarding WLPVNDVALGNQA, the growth estimate is under -0.25.

Take RTDIEFVLKV: the growth estimate is under -0.25.

With APHMRLIAIQVFCAET, the growth estimate is under -0.25.

For LAKSWANSVSR, the growth estimate is under -0.25.

On to TTVHAALLYKLRTTLQDSAS, for which the growth estimate was under -0.25.

On to PAPICAVLLSVMATNGSHLR, for which the growth estimate is under -0.25.

NSRFREKSGGAIGVVTAGHC: the growth estimate was under -0.25.

As to LCGANRGVPWGHLRR, the growth estimate is under -0.25.

Take CSTP: the growth estimate is under -0.25.

Turning to PIRSPVVLVMEQGLDMTGLS, the growth estimate was under -0.25.

In the case of SLCLWEYN, the growth estimate was under -0.25.

Regarding TIGCHPLHIGYVTSLLGIGT, the growth estimate is under -0.25.

Regarding ESLIVLPTGDTPRSSK, the growth estimate was under -0.25.

In the case of DRL, the growth estimate was under -0.25.

With ADDSADWTQRLRPSPPV, the growth estimate is under -0.25.

In the case of IHKVCRTSRVEDLKPVKDGT, the growth estimate is under -0.25.

LGIRIP: the growth estimate is under -0.25.

VWVWCEWLI: the growth estimate is under -0.25.

Turning to RGSRSPLQ, the growth estimate is under -0.25.

With CHPYSPRVIWSLTGILGVAR, the growth estimate is under -0.25.

As for FSILRDSWGENGRRCGHTGV, the growth estimate was under -0.25.

Regarding RDNHSGACWSWEHRLRVRSS, the growth estimate was under -0.25.

Turning to ISGGGS, the growth estimate is under -0.25.

Regarding HMVI, the growth estimate was under -0.25.

With LVFAGKVSPHRQVGQFLLLS, the growth estimate was under -0.25.

For RPSRACHCLLVSRSTSRI, the growth estimate is under -0.25.

In the case of TSESGRYDRR, the growth estimate was under -0.25.

In the case of VLVHIRFYVLGGTGASGLTN, the growth estimate is under -0.25.

In the case of LISRLAREYHVQIAHGLSGL, the growth estimate was under -0.25.

For LSRLLKTPQERARGWISGRW, the growth estimate was under -0.25.

Turning to VQMPLITAREELGQT, the growth estimate is under -0.25.

AFVSPIKNKLSNRMRQTCSF: the growth estimate was under -0.25.

For the substance IVKTQAFMCERLAV, the growth estimate is under -0.25.

Regarding GCYRVG, the growth estimate is under -0.25.

As for AQSYLYPYGREG, the growth estimate was -0.246.

AVHRRLSTYRPEPYL: the growth estimate was under -0.25.

On to LRPASELVSRCGFLAMGR, for which the growth estimate was under -0.25.

Turning to FRFSGPSNYLTEVISINSGG, the growth estimate was under -0.25.

As to IQSNLFRGRPVVFWVAFTGE, the growth estimate is under -0.25.

Regarding IATL, the growth estimate is under -0.25.

Regarding LLREALRE, the growth estimate was under -0.25.

With VVRCKEKLELGACRGAAWWP, the growth estimate was under -0.25.

In the case of GNSILNIAADYGQITRSMLT, the growth estimate was under -0.25.

On to HGRLKDSRGYAGVSRFDLE, for which the growth estimate was under -0.25.

As to PSKSSLGKSGAHRVYLDTRS, the growth estimate is under -0.25.

RQESCNKSASPPGASQVPLL: the growth estimate was under -0.25.

In the case of KKLACLFLSWIV, the growth estimate was under -0.25.

Take YFIGSLSHAGETKRNPLAPP: the growth estimate was under -0.25.

VNSYLWTFPVSFRPGSQVDG: the growth estimate is under -0.25.

For the substance LLSNPTSCFGSHAHLGS, the growth estimate is -0.208.

For PIV, the growth estimate is under -0.25.

For YLLVKYLGHP, the growth estimate is under -0.25.

With SQGGVMHSWRYR, the growth estimate is under -0.25.

GFVPLTGVLSTSGRAQGKSV: the growth estimate is under -0.25.

As for GHCVEWFLNPFCIDYLKYAP, the growth estimate was under -0.25.

As for GRGLEGP, the growth estimate was under -0.25.

Turning to RRFSTTGLYGEHYGSNHFLR, the growth estimate was under -0.25.

With LLGEARFGTLETSTPVRGSF, the growth estimate is under -0.25.

As for EMSDLATWC, the growth estimate was under -0.25.

(Values after the supplement of paper PMC5949888.)
